Results published in article PMC4847484 (Chemical Communications (Cambridge, England), 2015).

assay: general procedure: peptide synthesis; pre-loaded glycine chlorotrityl resin; settings: cyclisation step; run 1

| Substance | cyclisation yield |
| --- | --- |
| H-ACSDRFRNCPADEALCG-NH2 (cysteine pairing not given here) [LDL] | 16% |
| H-ACSDRFRNCPADEALCG-NH2 (cysteine pairing not given here) [DDD] | 26% |
| H-ACSDRFRNCPADEALCG-NH2 (cysteine pairing not given here) [DLL] | 26% |
| H-ACSDRFRNCPADEALCG-NH2 (cysteine pairing not given here) [DLD] | 16% |
| H-ACSDRFRNCPADEALCG-NH2 (cysteine pairing not given here) [DDL] | 26% |
| H-ACSDRFRNCPADEALCG-NH2 (cysteine pairing not given here) [LDD] | 24% |
| H-ACSDRFRNCPADEALCG-NH2 (cysteine pairing not given here) [PK15] | 29% |
| H-ACSDRFRNCPADEALCG-NH2 (cysteine pairing not given here) [LLD] | 10% |

assay: peptide made by a vendor (peptide synthesis; pre-loaded glycine chlorotrityl resin); settings: whole synthesis

| Substance | purity (crude or final not stated) |
| --- | --- |
| H-LTFCEYWAQLCSAA-OH (cysteine pairing not given here) | >80% purity |
